In PubChem BioAssay AID1508600 (Functional Genomics Laboratory (NCATS/FGL), 2020) one finds z-score data, which are given here for 107 sequences.

About 3,700 (7%) of roughly 53,000 sequences were called active.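 The calls were made as follows: active = gene knockdowns whose robust z-score for IL-1 alpha signal is at least 2 or at most -2, so actives lie on both sides; inactive = the rest.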 The list shows a part of the results.

A short description of this experiment: Components of the Cytosolic LPS Sensing Pathway: Gene Identification via Genome-wide siRNA Screen.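 Also: robust z of the log signal after scaling to non-targeting control siRNA wells of the plate.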 The settings on record: RAW264.7 macrophages, IL-1a HTRF, actives lie on both sides, screened at 100 nM (by protocol), cells primed 5 h with Pam3CSK4 first. In a few lines: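 Read-out: IL-1a HTRF on supernatant, divided by plate negative-control median ×100, log-transformed and converted to robust z-score. Cells were RAW264.7 given 100 nM siRNA, Pam3CSK4-primed 5 hours, then LipidA-transfected 24 hour.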
Background: Time-resolved FRET reads energy transfer from a long-lived donor to a nearby acceptor.
Turning to GCACAACUUUGAGGUGUGGTT against Plekha4, the z-score is inactive: 0.292.
As for GGUGUACCUACAGUUAUGGTT against Marchf8, the figure is inactive: 0.0777; as for GCAGCUAGCAUAUAAUAACTT against Il21r, inactive: -0.186; as for GGUACCAUAUGAGAGCUAATT against Tsr2, active: 2.7.
As to AUUGUAGCAGUGAAUUGGATT against Pdia6, the z-score is inactive: -0.121.
With GUGUCCUGACCAGGGUUCUTT against Gpr31b, the z-score is inactive: 0.311.
The result for CCAAAUGUAACUGGUGUAATT against Aif1l reads inactive: -0.69.
For UGUGGUCUUAGAAUCUAGCTT against Tdpoz3, the z-score was active: 4.49.
For GCACAAUCCGGUCAACAUGTT against Zbp1, the z-score was inactive: 1.22.
The result for GGCCUUUUCUCAUCUCUGGTT against Igfals reads inactive: -1.57; that for GCAGCAGAAUGCUAGAAAATT against Mtrf1, inactive: 0.649.
The result for GGCUAUGGGAAAUAUAAGATT against Pde1b reads inactive: 0.00984; that for UGGUUGUAUUAUUCUGUUGTT against Defb38, inactive: 0.188.
The result for GCCUUAGAGCUUGUAACUATT against Nbl1 reads inactive: -1.68.
With GGUGAACAAGAAAGAAGUCTT against Rpl3, the z-score is inactive: -0.665.
The result for CCCUCGGUGCCUAAUAAAUTT against Hsd17b10 reads inactive: -0.0731.
As for GCUUAAUUUCAUUUCAAGGTT against B3gnt5, the figure is inactive: 0.496; as for CGUAUUCCCAAAUGUGAUGTT against Pcbp3, inactive: -0.276.
The result for GCUCUUUCAUGUUAUUGAUTT against Dicer1 reads inactive: -1.22; that for CCUAACUGGGAUCGUAUUATT against Med29, inactive: -1.55.
With GGGCUUAAUCCAGGCCUUATT against Fam118b, the z-score is inactive: 1.14.
As for GGAAUACAAAUUCAAGAUCTT against Vamp5, the figure is inactive: -0.82; as for GGACAAAAUCCUGCACAUUTT against Dnajb5, inactive: -0.606.
On to GCUUGUAGUUAAGGUGCACTT against Apbb1ip, for which the z-score was inactive: 0.653.
The result for GGAAAUAUAUCCCGGACAGTT against Sirt1 reads inactive: -0.433; that for GGGAAUUCUCCUUGAGAAUTT against Prdm9, inactive: -0.651.
As for GGACAAAUACCACAAGUUGTT against Simc1, the figure is active: 2.13; as for CCACCUUUUUCUACAAAGUTT against Slc16a9, inactive: 0.256.
As for GCACCCUAGAGGUAAAAGATT against Taf12, the figure is active: -2.95; as for GGAGAUGAAAUCUACAAAUTT against Igfbp1, inactive: -0.592.
Regarding AGUGAAGUAUCCAGGGUGUTT against Tex18, the z-score was inactive: -0.427.
The result for GGUCAUUUUUGAGGUGCUGTT against Grin2d reads inactive: -0.479; that for GGAGAUCAUAUGAUUGAGATT against Plscr2, inactive: -0.837; that for GCUGGUAGCCCGACAUAAUTT against Daam2, inactive: 0.77.
As for GGUUUGUUAUGCUAUUGUATT against Defa4, the figure is inactive: 0.705; as for GGUAAUUUUGGCUCUUGGATT against Eif4a2, inactive: -1.53; as for UGUAUCUGCUUACAGUAGCTT against Olfr523, inactive: 0.15.
The result for GGAUCCUCAACAAAGAAGATT against H2-DMb1 reads inactive: 0.972.
On to GCUACAAUAAUGGUCAGUCTT against Zfp36l3, for which the z-score was inactive: -1.16.
Regarding GGGAGGGAAUAGUCAAAAATT against Timm17b, the z-score was inactive: 0.909.
In the case of GGAUCUCAUGUUGAUAUAATT against Rpp40, the z-score is inactive: -0.589.
The result for GCACUAUACCGAAAAGCGCTT against Ppid reads inactive: -0.178.
The result for GCAGGGUGAGUUGUUAAAUTT against Marchf11 reads inactive: 0.328; that for GAUUCUUUGUAGGGAGAUATT against Olfr26, inactive: 1.27.
As for CGAAUACAUUAAGGAGAACTT against Relb, the figure is inactive: -0.316.
In the case of GCACAACCGAUUUUAUCACTT against BC005624, the z-score was inactive: 0.322.
The result for GGAUAUCGAUUUAAGAGACTT against Adam2 reads inactive: 1.25; that for GGGCUUAAGGCUUAAGACATT against Cgnl1, inactive: -0.785; that for GGAAGUAUGGGAUUAUGUGTT against Scpep1, inactive: -0.933.
As for GGCCACGGAGCUCUUUGUUTT against Chrac1, the figure is inactive: -0.266; as for CCAGUUCUCUCGAAGACUUTT against Hoxb1, inactive: 0.278.
For GGAGUGCAAAAAGAGUUGCTT against Abce1, the z-score is inactive: -0.781.
On to GGUCCACAUUUUCGGCUAGTT against Kctd11, for which the z-score is inactive: 0.439.
The result for GGAGAUGAAAUUGUUUAUCTT against Bpgm reads inactive: -0.0841; that for GGCAAAGCAAGGUUGCUGATT against Ormdl3, inactive: 1.16; that for GCAGAAAUACUGGCGAAUATT against Gm9725, inactive: 0.607.
For GGAAUUUCAUACAAACUCUTT against Fnip1, the z-score was inactive: 0.997.
The result for GCCGAUUUUUGGGAAUAAATT against Ptpn20 reads inactive: 0.0604; that for GGAAUUCACCUUUAAGAUGTT against Gkn2, inactive: 0.44.
As for GGUAGACCAGCUUGCUAAUTT against Plxnb1, the figure is inactive: -0.754; as for GGGAUUACUUGUAACAUCATT against Abcc2, inactive: 0.415.
The result for GCUUUUCGCCCUGUGCUUATT against Smgc reads inactive: -1.21; that for GGGUUACAAGCUUAGCUCCTT against Pcdhga5, inactive: -0.0908; that for GGAACUUCAUAAACACUUGTT against Oas3, inactive: -0.545.
Regarding GGUGAACGAUGUCAACUUUTT against Dvl1, the z-score was inactive: -0.545.
As for CCUGUGUCAAUCCUGUGCATT against Ifitm7, the z-score was inactive: 0.0113.
The result for GGUAAUCUAUGAGACUCCATT against Gng5 reads inactive: -1.43; that for “GGCCAUCAGCAAAGGAUGCTT against C130074G19Rik”, inactive: 1; that for CGUGUUCUUAAUUUGCUUUTT against Rac1, inactive: 1.17.
As for GGUGAAAGGAGUCAGUCUATT against Agtrap, the figure is inactive: -0.013; as for GGAUUUUGUGAAUAAAUGCTT against Map2k1, inactive: 1.31.
Turning to GCAUAUGGACUUUCUGUCATT against Iws1, the z-score is inactive: -0.157.
On to CGCAGUGACCUCAUUAACGTT against Klf7, for which the z-score is inactive: -0.437.
As for CCUUCUCCCAUAAGGCCAATT against Zfp1, the figure is inactive: 1.14.
The result for GGAAGACGAAGAGCUGACATT against Psen1 reads inactive: -0.853.
As for CCCAGAUCCUUACUGACUGTT against Tada3, the figure is inactive: -0.839; as for CCCGUGAAAACAGUUGUCATT against Scly, inactive: -0.201; as for GGCGUGUGCAAGAAAAUCGTT against Cacng3, active: 2.53.
Turning to GGCUCCAUCAAGAAAAGUUTT against Usp21, the z-score is inactive: 0.681.
The result for GGUGAACACUCUUUUGGAATT against Rab11fip2 reads inactive: 0.5; that for GGCACAUUCAACAACAUUUTT against Zfp592, inactive: 1.61; that for GGAGAAGAUGAUGUACUGUTT against Bub1b, inactive: -0.204.
For CGCUCAAACCAAAGUUCCUTT against Lin28b, the z-score was inactive: 0.63.
Consider CCAGAUGCUCGAUUCAGUGTT against Crim1, for which the z-score was inactive: -0.44.
The result for CCAUACAUUGGAUCAAAGCTT against Rae1 reads inactive: -0.979; that for GCCAUCACAAGUGAGUUCATT against Olfr951, inactive: -0.524; that for GGUUUUCAAUUUUACACACTT against Dtnbp1, inactive: 1.25.
As for “GGAGAAAUUCUAUGGUAUUTT against 5031434C07Rik”, the figure is active: 2.18; as for GGUGUUUCAGAGGCCAAACTT against Stfa1, inactive: 1.25.
The result for CGUUGAUCCUUUUCAACAUTT against Olfr881 reads inactive: 0.8; that for GAACAAGGAGAAAUUCUUGTT against Ms4a4c, inactive: -1.37; that for GCUGUGCAAGCAAUAUCUATT against Hnrnpm, inactive: 0.423.
Regarding CCUACAUCAAUAGGAGUUUTT against Ubash3b, the z-score is inactive: 0.627.
Take GGCUCUCAAGAAGAGCAAGTT against Ccdc106: the z-score was inactive: 1.12.
The result for GGAAUCCUGCCAUGAUGCATT against Ubqln2 reads inactive: -0.0777; that for GGGUUUGCACUAGUUUAUUTT against Rap1a, inactive: 0.632.
The result for GGAAAAGAUUGGUGAAGGUTT against Gjb5 reads inactive: -1.21; that for GGAAGUUACUGUCGAGUACTT against Olfr115, inactive: 1.61; that for GGAAUCUGGGCAAAUCUGGTT against Kcnab2, inactive: 0.467.
As for CCUUUGAUCAAUUCUGAGUTT against Glb1, the figure is inactive: -0.554; as for GGAGAAAACUAAAUAAGCATT against Vmp1, inactive: -0.841; as for GGGACCUUAGAAGAUUGGGTT against Sart3, inactive: -0.0829.
As to GGGUAAACUCAGGCACCUCTT against Ocel1, the z-score is inactive: -0.217.
The result for GUAGUAACUCCUACAUUGATT against Olfr133 reads inactive: 0.165; that for GCAUGAGGCUUUAUUUGACTT against Wwp2, inactive: -0.418.
The result for GCCAGAUCGCUAAAAUCGUTT against Mtfr1l reads inactive: -0.22; that for GGAUCUGGAUUAGAUAGAUTT against Wnt3, inactive: 0.109.
